These are yes or no findings as the source states them, for the method shown. In cells and extracts the contact can be indirect. A yes stands for co-enrichment or nearness to the bait. Other partners may have been found.
molecular target: Strep-tagged nucleoprotein (NP) of lymphocytic choriomeningitis virus, encoded by rLCMV/Strep-NP (lymphocytic choriomeningitis virus (LCMV), clone 13) (UniProt P09992); test: affinity purification with mass spectrometry

Amino acid sequences for entries named in this document (tags omitted). Residues count along the entry.
UniProt P09992: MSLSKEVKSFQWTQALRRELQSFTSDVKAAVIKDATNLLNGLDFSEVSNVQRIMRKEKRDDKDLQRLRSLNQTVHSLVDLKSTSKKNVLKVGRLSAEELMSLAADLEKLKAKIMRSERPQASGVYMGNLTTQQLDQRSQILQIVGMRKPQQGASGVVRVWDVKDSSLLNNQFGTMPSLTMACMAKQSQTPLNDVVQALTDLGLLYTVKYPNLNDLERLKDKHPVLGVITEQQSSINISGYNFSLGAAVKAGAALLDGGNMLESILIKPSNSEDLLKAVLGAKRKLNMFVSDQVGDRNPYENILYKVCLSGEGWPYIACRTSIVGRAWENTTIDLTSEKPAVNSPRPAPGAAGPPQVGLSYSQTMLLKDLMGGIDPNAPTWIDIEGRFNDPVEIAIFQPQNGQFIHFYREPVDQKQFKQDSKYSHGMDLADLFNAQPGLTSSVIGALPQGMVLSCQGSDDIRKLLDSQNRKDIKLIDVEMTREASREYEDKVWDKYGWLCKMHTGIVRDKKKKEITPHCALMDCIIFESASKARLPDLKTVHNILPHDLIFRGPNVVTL
UniProt P37802: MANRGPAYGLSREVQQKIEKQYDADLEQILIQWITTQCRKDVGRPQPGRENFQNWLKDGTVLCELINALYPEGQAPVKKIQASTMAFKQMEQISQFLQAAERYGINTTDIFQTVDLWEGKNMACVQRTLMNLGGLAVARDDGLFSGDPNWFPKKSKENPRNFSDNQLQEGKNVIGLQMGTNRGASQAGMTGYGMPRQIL
UniProt O60218: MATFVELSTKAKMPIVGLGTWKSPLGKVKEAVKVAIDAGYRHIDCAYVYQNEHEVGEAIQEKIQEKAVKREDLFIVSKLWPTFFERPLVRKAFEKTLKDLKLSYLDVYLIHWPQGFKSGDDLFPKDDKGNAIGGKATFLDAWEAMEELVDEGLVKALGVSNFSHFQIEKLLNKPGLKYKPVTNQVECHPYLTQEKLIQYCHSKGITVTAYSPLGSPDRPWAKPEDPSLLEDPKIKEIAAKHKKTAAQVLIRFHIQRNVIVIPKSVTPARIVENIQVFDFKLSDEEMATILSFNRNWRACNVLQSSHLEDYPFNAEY
UniProt P68104: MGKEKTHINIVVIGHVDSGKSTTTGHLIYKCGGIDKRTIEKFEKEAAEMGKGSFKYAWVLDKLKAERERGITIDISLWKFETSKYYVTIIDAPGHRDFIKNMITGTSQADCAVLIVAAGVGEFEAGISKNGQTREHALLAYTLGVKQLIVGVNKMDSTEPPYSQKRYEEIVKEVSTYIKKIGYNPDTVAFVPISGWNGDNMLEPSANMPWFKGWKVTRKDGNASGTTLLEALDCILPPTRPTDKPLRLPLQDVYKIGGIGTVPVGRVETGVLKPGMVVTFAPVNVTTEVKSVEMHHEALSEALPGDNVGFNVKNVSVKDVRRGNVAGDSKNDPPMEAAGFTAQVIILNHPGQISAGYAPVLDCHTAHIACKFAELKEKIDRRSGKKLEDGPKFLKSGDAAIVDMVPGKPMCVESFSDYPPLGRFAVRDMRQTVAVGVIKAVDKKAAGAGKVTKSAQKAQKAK
UniProt P54652: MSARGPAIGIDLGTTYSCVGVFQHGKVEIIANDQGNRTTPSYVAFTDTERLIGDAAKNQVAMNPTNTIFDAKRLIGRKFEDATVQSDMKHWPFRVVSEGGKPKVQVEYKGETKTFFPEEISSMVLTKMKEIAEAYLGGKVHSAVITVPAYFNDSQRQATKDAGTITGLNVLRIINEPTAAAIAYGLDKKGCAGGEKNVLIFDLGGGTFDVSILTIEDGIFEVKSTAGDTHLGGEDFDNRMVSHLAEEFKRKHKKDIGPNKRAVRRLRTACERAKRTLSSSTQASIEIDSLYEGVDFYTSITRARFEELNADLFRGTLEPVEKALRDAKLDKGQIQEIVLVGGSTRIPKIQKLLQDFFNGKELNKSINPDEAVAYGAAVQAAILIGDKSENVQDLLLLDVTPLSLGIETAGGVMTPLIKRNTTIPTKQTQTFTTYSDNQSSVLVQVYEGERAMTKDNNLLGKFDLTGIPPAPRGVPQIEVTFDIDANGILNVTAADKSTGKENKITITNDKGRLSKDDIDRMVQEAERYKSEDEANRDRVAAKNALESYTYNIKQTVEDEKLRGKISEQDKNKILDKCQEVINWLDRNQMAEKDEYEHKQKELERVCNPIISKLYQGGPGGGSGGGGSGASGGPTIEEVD
UniProt Q92598: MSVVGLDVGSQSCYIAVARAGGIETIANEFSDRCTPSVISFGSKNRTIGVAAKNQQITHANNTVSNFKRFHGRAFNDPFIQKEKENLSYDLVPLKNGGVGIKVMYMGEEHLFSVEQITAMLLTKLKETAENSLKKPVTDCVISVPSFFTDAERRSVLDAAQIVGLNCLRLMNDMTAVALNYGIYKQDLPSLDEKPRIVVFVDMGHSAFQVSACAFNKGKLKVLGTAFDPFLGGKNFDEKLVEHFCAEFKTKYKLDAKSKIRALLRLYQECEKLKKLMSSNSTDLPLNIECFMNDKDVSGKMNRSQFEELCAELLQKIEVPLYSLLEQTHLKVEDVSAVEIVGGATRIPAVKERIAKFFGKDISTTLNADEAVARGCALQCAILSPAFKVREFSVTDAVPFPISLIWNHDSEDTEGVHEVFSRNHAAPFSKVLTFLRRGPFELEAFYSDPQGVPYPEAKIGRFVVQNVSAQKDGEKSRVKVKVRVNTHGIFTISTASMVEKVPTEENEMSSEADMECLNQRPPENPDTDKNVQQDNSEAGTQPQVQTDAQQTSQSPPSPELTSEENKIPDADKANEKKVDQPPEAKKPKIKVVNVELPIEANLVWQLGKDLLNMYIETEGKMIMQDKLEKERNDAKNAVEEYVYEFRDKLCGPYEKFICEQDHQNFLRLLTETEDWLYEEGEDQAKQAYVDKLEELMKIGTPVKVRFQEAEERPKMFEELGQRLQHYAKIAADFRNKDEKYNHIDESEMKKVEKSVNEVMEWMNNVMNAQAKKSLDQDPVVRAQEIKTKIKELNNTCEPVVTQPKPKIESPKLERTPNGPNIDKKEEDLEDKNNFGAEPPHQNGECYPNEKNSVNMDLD
UniProt Q9Y623: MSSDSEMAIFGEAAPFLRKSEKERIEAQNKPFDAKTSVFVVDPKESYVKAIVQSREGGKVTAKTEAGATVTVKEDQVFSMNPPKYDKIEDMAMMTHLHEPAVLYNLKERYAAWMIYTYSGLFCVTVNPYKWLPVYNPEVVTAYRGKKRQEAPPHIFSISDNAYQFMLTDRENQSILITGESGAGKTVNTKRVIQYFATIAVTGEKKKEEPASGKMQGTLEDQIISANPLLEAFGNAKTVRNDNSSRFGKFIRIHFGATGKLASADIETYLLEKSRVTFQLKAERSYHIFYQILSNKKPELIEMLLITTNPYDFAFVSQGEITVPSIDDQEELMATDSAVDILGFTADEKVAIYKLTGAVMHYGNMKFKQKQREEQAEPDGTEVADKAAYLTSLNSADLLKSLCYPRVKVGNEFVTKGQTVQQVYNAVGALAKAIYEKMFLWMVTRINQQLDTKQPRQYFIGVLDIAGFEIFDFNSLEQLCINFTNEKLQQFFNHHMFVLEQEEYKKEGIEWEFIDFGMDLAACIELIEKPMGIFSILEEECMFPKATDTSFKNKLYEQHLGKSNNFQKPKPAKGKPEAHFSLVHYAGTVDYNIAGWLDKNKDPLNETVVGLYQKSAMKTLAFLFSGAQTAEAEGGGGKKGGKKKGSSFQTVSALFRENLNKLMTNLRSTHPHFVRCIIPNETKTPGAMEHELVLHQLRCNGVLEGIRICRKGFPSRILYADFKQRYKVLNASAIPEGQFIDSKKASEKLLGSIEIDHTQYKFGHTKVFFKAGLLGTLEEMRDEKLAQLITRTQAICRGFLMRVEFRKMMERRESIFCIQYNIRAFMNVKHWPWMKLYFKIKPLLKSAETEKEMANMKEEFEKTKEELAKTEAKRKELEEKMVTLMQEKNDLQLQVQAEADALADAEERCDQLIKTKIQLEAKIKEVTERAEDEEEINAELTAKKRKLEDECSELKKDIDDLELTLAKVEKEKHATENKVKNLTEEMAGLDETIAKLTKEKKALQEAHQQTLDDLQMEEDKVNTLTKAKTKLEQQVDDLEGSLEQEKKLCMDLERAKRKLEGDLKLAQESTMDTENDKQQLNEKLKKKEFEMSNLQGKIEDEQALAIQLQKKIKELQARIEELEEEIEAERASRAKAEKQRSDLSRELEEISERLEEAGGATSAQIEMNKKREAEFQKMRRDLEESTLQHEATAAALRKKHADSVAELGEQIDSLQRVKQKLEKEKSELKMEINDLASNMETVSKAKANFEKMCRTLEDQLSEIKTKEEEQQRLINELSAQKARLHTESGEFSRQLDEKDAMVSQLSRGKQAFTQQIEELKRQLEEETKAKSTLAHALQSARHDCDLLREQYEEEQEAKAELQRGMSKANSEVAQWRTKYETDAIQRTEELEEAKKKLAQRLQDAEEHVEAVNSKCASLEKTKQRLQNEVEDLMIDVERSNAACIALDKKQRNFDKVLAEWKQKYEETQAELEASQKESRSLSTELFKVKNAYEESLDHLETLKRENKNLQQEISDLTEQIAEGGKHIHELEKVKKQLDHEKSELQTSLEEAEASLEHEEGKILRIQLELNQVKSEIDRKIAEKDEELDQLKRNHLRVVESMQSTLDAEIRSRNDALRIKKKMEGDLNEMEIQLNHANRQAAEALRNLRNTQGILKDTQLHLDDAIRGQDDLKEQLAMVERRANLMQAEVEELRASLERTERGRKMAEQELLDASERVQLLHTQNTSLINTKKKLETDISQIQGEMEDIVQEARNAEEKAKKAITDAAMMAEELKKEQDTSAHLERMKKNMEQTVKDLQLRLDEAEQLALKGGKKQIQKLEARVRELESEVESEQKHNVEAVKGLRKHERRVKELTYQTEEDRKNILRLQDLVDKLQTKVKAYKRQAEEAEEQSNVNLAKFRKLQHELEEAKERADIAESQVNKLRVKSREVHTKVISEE
UniProt Q8NBS9, residues 33-432: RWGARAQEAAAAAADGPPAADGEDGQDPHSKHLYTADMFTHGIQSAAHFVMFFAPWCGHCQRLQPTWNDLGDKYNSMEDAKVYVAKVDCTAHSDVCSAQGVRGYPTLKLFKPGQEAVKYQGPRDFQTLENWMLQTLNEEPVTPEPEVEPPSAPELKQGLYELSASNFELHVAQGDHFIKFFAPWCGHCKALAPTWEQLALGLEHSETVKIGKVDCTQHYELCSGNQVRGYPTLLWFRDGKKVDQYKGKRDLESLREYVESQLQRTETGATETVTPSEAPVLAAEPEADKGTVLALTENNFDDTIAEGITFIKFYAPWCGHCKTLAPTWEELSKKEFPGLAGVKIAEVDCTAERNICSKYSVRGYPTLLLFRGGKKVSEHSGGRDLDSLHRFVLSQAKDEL
UniProt P08727: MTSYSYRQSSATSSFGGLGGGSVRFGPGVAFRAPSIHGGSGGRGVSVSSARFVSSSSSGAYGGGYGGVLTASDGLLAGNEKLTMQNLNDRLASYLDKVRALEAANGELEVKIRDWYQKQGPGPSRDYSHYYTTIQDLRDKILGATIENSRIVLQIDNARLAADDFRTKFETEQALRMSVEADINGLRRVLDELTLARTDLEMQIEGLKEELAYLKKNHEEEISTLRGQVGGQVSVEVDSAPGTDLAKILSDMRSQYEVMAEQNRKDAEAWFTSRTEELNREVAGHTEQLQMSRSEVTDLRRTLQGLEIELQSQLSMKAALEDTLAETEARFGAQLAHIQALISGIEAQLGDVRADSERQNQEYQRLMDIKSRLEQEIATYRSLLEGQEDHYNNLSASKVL
UniProt P11142: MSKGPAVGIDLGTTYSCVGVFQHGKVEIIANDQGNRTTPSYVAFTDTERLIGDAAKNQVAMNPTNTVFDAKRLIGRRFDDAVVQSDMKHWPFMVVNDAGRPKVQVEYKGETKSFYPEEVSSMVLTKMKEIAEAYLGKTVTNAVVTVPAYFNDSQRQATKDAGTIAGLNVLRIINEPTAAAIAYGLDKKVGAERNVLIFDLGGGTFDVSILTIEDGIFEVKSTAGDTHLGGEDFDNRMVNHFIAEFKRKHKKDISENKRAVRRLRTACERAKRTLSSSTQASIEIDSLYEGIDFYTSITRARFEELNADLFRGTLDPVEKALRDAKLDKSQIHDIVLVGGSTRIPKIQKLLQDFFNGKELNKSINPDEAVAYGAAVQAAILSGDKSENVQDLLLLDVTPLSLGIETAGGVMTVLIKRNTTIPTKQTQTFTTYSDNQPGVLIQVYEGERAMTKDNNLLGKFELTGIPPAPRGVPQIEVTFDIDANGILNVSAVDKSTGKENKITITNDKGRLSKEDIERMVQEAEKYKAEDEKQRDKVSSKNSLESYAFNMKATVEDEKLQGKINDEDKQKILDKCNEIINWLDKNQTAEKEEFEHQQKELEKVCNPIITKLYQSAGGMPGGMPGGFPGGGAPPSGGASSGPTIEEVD
UniProt Q5SXM8, residues 50-178: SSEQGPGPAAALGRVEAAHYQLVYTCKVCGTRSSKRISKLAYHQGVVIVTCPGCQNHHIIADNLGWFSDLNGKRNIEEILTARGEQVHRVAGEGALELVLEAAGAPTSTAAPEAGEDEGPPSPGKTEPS

Substance	binding
Tubulin alpha-1B chain (from UniProt P68363 1-451)	binds
Polyadenylate-binding protein 1 (from UniProt P11940 1-636)	binds
Tubulin alpha-1C chain (from UniProt Q9BQE3 1-449)	binds
T-complex protein 1 subunit epsilon (from UniProt P48643 1-541)	binds
Heat shock protein HSP 90-beta (from UniProt P08238 1-724)	binds
Transgelin-2 (from UniProt P37802 1-199)	binds
Pre-mRNA-processing factor 40 homolog A (from UniProt O75400 1-957)	binds
Filamin-C (from UniProt Q14315 1-2725)	binds
Tight junction protein ZO-1 (from UniProt Q07157 1-1748)	binds
T-complex protein 1 subunit theta (from UniProt P50990 1-548)	binds
Aldo-keto reductase family 1 member B10 (from UniProt O60218 1-316)	binds
Filamin-A (from UniProt P21333 1-2647)	binds
Elongation factor 1-alpha 1 (from UniProt P68104 1-462)	binds
Heat shock-related 70 kDa protein 2 (from UniProt P54652 1-639)	binds
Protein SET (from UniProt Q01105 1-290)	binds
Nck-associated protein 1 (from UniProt Q9Y2A7 1-1128)	binds
Heat shock protein 105 kDa (from UniProt Q92598 1-858)	binds
Stress-70 protein, mitochondrial (from UniProt P38646 47-679)	binds
Alpha-actinin-4 (from UniProt O43707 1-911)	binds

Substance	binding
Keratin, type II cytoskeletal 75 (from UniProt O95678 1-551)	binds
Cytoplasmic dynein 1 heavy chain 1 (from UniProt Q14204 1-4646)	binds
Nuclear cap-binding protein subunit 1 (from UniProt Q09161 1-790)	binds
Heat shock protein beta-1 (from UniProt P04792 1-205)	binds
Microtubule-associated protein 1B (from UniProt P46821 1-2468)	binds
UPF0515 protein C19orf66 (from UniProt Q9NUL5 1-291)	binds
Filamin-B (from UniProt O75369 1-2602)	binds
Probable ATP-dependent RNA helicase DDX5 (from UniProt P17844 1-614)	binds
Keratin, type II cytoskeletal 7 (from UniProt P08729 1-469)	binds
Myosin-4 (from UniProt Q9Y623 1-1939)	binds
Tubulin alpha-4A chain (from UniProt P68366 1-448)	binds
Large neutral amino acids transporter small subunit 1 (from UniProt Q01650 1-507)	binds
RNA-binding motif protein, X chromosome (from UniProt P38159 1-391)	binds
Cytoplasmic FMR1-interacting protein 1 (from UniProt Q7L576 1-1253)	binds
Alpha-actinin-1 (from UniProt P12814 1-892)	binds
Elongation factor 1-delta (from UniProt P29692 1-281)	binds
Myosin-9 (from UniProt P35579 1-1960)	binds
60 kDa SS-A/Ro ribonucleoprotein (from UniProt P10155 1-538)	binds
Heat shock protein HSP 90-alpha (from UniProt P07900 1-732)	binds

Substance	binding
Tubulin beta-4B chain (from UniProt P68371 1-445)	binds
T-complex protein 1 subunit eta (from UniProt Q99832 1-543)	binds
4F2 cell-surface antigen heavy chain (from UniProt P08195 1-529)	binds
Histone H1.5 (from UniProt P16401 1-226)	binds
Cytoplasmic FMR1-interacting protein 2 (from UniProt Q96F07 1-1278)	binds
Endoplasmin (from UniProt P14625 22-803)	binds
Spectrin beta chain, non-erythrocytic 1 (from UniProt Q01082 1-2364)	binds
Histone H1x (from UniProt Q92522 1-213)	binds
CAD protein (from UniProt P27708 1-2225)	binds
Thioredoxin domain-containing protein 5 (from UniProt Q8NBS9 33-432)	binds
Clathrin heavy chain 1 (from UniProt Q00610 1-1675)	binds
Poly(rC)-binding protein 1 (from UniProt Q15365 1-356)	binds
Prefoldin subunit 2 (from UniProt Q9UHV9 1-154)	binds
YTH domain-containing family protein 3 (from UniProt Q7Z739 1-585)	binds
Prelamin-A/C (from UniProt P02545 1-646)	binds
Keratin, type I cytoskeletal 19 (from UniProt P08727 1-400)	binds
Heat shock cognate 71 kDa protein (from UniProt P11142 1-646)	binds
DNL-type zinc finger protein (from UniProt Q5SXM8 50-178)	binds

Source: paper PMC5834214
